Test results taken from PubChem BioAssay AID651640 (Broad Institute, 2012).
Out of some 350,000 compounds screened, about 6,000 (1.7%) were called active. This list was built around the results that the source calls inconclusive (neither active nor inactive); the mix of calls is not that of the screen. No stated cut-off is given here; in the data, active means CPE inhibition above about 20% (passing the limit was not always enough); inconclusive means no clear call, values can overlap the other calls; tested in BHK-21 cells.

Experiment: protection of cells from dengue 2 killing – plate reader, single concentration, primary screen (AID 651640);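 further: 0% = median of neutral control wells and 100% = median of positive control wells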
Conditions: DENV2-infected cells, cytopathic effect rescue, at 9.99 µM, active compounds read high

Compound | CPE inhibition
COc1ccc(N2CC(NC(=O)N3CCN(C(=O)c4ccco4)CC3)CC2=O)cc1OC (stereo not given) | inconclusive: 49.4%
CCN(CC(=O)Nc1ccc(OC)cc1)CC(=O)Nc1ccc2c(c1)OCO2 | inconclusive: 38.1%
COc1cc(/C=N/NC(=O)c2ccoc2C)ccc1OCCN1CCCCC1 | inconclusive: 35.2%
CC(C)C#Cc1cnc2c(c1)C(=O)N([C@@H](C)CO)C[C@@H](C)[C@H](CN(C)C(=O)Cc1ccccn1)O2 | inactive: 0.367%
COc1ccc(C(=O)NC(=S)N(C)C2CCCCC2)cc1Br | active: 59.3%
COC(=O)C[C@H]1CC[C@H]2[C@H](COc3ccc(NC(=O)c4cccc(Cl)c4)cc3C(=O)N2C)O1 | inconclusive: 47.1%
COc1ccccc1C(c1c(N)n(C)c(=O)n(C)c1=O)C(C)[N+](=O)[O-] (stereo not given) | inactive: -5.37%
CCOC(=O)C1(C)CCCN(C(=O)c2cccc(OC(F)(F)F)c2)C1 (stereo not given) | inconclusive: 52.5%
COc1ccc(CCNC(=O)CCNC(=O)c2ccc(Cl)cc2)cc1OC | inactive: 1.05%
COc1cccc(S(=O)(=O)N2CCC3(CC2)CN(C(=O)Nc2ccc(F)cc2)[C@H](CO)c2[nH]c4cc(OC)ccc4c23)c1 | inactive: -3.6%
COc1nc(=O)n(C2C=CC(=O)O2)cc1F (stereo not given) | inactive: 1.92%
CCCN1C[C@@H](C)[C@@H](OC)CN(C)C(=O)c2cc(NC(=O)c3ccccc3)ccc2OC[C@@H]1C | inactive: 12.1%
C[C@@H]1CN([C@@H](C)CO)C(=O)Cc2cc(NC(=O)CCCN(C)C)ccc2O[C@@H]1CN(C)Cc1ccc(-c2ccccc2)cc1 | inconclusive: 19.4%
CC(C)C#Cc1ccc2c(c1)O[C@H](CN(C)C(=O)c1cccnc1)[C@@H](C)CN([C@@H](C)CO)S2(=O)=O | inconclusive: 21.1%
CCC(=O)NC[C@@H]1[C@@H](c2ccc(-c3ccc(OC)cc3)cc2)[C@@H](CO)N1C(C)=O | active: 42.1%
NS(=O)(=O)c1cccc(NC(=O)c2cc(=O)c3ccccc3o2)c1 | inconclusive: 43.5%
O=[N+]([O-])c1cccc(S(=O)(=O)NCC2CCCO2)c1 (stereo not given) | inconclusive: 22.4%
COc1cccc(S(=O)(=O)N[C@H]2C=C[C@H](CC(=O)NC3CCC3)O[C@@H]2CO)c1 | inconclusive: 20.9%
C[C@@H]1CN([C@@H](C)CO)C(=O)c2cc(NC(=O)Nc3ccc4c(c3)OCO4)ccc2O[C@@H]1CN(C)C | inconclusive: 28.4%
COCCNC(=O)C[C@H]1C[C@@H]2c3cc(NS(=O)(=O)c4ccc(F)cc4)ccc3O[C@@H]2[C@H](CO)O1 | inactive: 0.923%

Rewritten tab-delimited: part of the list above.
Compound	CPE inhibition
CCN(CC(=O)Nc1ccc(OC)cc1)CC(=O)Nc1ccc2c(c1)OCO2	inconclusive: 38.1%
COc1cc(/C=N/NC(=O)c2ccoc2C)ccc1OCCN1CCCCC1	inconclusive: 35.2%
